In PubChem BioAssay AID1347076 (National Center for Advancing Translational Sciences (NCATS), 2019):
Screen size: about 400,000 compounds; about 13,000 (3.2%) were called active. The inconclusive results got no clear call from the source; some entries with a clear call stand among them for comparison. The call rests on the fitted dose curve; in most records, active means well fitted cell-killing curve with a large enough effect; inconclusive means small, poorly fitted or top-dose-only effect, or effect the other way; inactive means flat fitted curve, though single readings scatter. A potency beside an inconclusive call is a rough fit, not a confirmed value.

Assay: qHTS assay for MDR1-selective chemotherapeutics: Primary screen using the drug-selected MDR subline cells KB-V1; further: nearly all actives have a fitted effect of over 60% in size
Settings: KB-V1 MDR cells viability, CellTiter-Glo, 72 h; activity change, negative = cytotoxicity: at 46.1 µM (top of the series)
Procedure, shortened: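 KB-V1 MDR subline cells in DMEM (phenol-red free, 10% FBS) exposed to compounds in qHTS concentration series for 72 h at 37 degrees C. Viability read by CellTiter-Glo luminescence; concentration-effect curves fitted after normalization and correction.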
On the % scale 0 is the no-effect control and ±100 the full control effect; potency means the concentration at half of the fitted maximal effect.

Row | SMILES | Potency | activity change, negative = cytotoxicity
1 | FC(F)(F)c1nc2ccccc2n2c(-c3ccc(Cl)cc3)nnc12 | active: 5.8 µM | –
2 | Cc1cc(C(=O)COC(=O)COc2ccccc2C#N)c(C)n1CC1CCCO1 (stereo unspecified) | inconclusive: 29.1 µM [rising, single point] | –
3 | CCOc1ccc(NC(=O)CC(C)S(=O)(=O)c2ccc3c(c2)NC(=O)CO3)cc1 (stereo unspecified) | inconclusive: 1.03 µM [rising, full curve, poor fit] | –
4 | CCN(Cc1cnn(C)c1)C(=O)c1ccc2nc(Cc3ccccc3F)oc2c1 | inconclusive: 23.1 µM [cytotoxic, single point] | –
5 | NC(=S)N/N=C/c1ccc(C(F)(F)F)cc1 | active: 5.8 µM | –
6 | C=CCc1c(C)nc(SC)nc1Nc1ccc(C)cc1 | inconclusive: 11.6 µM [cytotoxic, single point] | –
7 | O=C(Nc1cccc(S(=O)(=O)N2CCCCC2)c1)c1ccc(Cl)nc1 | – | inactive: -7.15%
8 | O=S(=O)(Nc1ccccn1)c1cccc(S(=O)(=O)c2ccc(Cl)cc2)c1 | – | inactive: -22.4%
9 | O=C1CCCCCN1Cc1nnc(SCc2nc3ccccc3s2)n1-c1ccccn1 | – | inactive: -8.66%
10 | CN1C(=O)CN(CCN2CC(=O)N(C)C(=O)C2)CC1=O | – | inactive: -0.281%
11 | NS(=O)(=O)c1ccc(CNC(=S)NC2CCCC2)cc1 | – | inactive: -8.87%
12 | CC(=O)c1cnn(-c2c(Cl)cc(Cl)cc2Cl)c1C | inconclusive: 18.4 µM [cytotoxic, partial curve, poor fit] | –
13 | CCOc1ccc(C(C)=O)cc1CN1C(=O)NC2(CCCCCC2)C1=O | – | inconclusive: -24.6%
14 | CC(C)N1CCc2c(sc(NC(=O)c3nc4ccccc4s3)c2C(N)=O)C1 | inconclusive: 18.4 µM [cytotoxic, partial curve] | –
15 | CCCCN(C)c1c(C)nc2ccc(C(=O)N3CCN(C(C)=O)CC3)cn12 | – | inactive: -2.35%
16 | Cc1c(Cl)c(=O)oc2cc(OC(C)C)ccc12 | active: 20.6 µM | –
17 | CCN(CC)C(=O)Oc1ccc(Cl)c2cccnc12 | – | inactive: -6.57%
18 | CCC1=NN2C(=N)/C(=C\c3ccc(OCc4cc(=O)n5nc(CC)sc5n4)c(OC)c3)C(=O)N=C2S1 | inconclusive: 1.16 µM [rising, full curve, poor fit] | –
19 | CCC(=O)Nc1cccc(NC(=O)c2ccc3c(c2)OCO3)c1 | inconclusive: 20.6 µM [cytotoxic, single point] | –
20 | CCN(C[C@H]1N[C@@](CC)(C(=O)OC)[C@H]2C(=O)N(Cc3ccccc3)C(=O)[C@@H]12)C(=O)COC | – | inconclusive: 35.9%
21 | Cc1ccc(-c2nc3cc(Br)cnc3nc2-c2ccc(C)cc2)cc1 | inconclusive: 16.4 µM [cytotoxic, single point] | –
22 | COc1ccc2cc3cc(C(=O)NCCc4ccc(OC)c(OC)c4)oc3nc2c1 | inconclusive: 7.31 µM [cytotoxic, partial curve] | –
23 | O=C(Nc1ccccc1Cl)c1cc(=O)c2ccccc2o1 | inconclusive: 18.4 µM [cytotoxic, partial curve, poor fit] | –
24 | CC(C)[C@H](NC(=O)N1CC(=O)Nc2ccccc21)C(=O)N1CCC[C@H]1C(=O)O | inconclusive: 29.1 µM [cytotoxic, single point] | –

Row | SMILES | Potency | activity change, negative = cytotoxicity
25 | c1ccc2c(c1)nnn2-c1ncnc2sc3c(c12)CCCC3 | active: 16.4 µM | –
26 | COC(=O)c1ccc(NC(=O)C2CCN(C(=O)c3ccc(F)cc3)CC2)cc1 | – | inactive: -11%
27 | COc1cc(CN2CC(=O)N(c3ccccc3Cl)C2=S)cc(OC)c1OC | inconclusive: 29.1 µM [cytotoxic, single point] | –
28 | Cc1cc(NC(=O)C2CCCC2)n(-c2nc3ccccc3[nH]2)n1 | – | inactive: -25.7%
29 | CN1/C(=C\C(=O)COC(=O)c2ccc(O)c(O)c2)C(C)(C)c2ccccc21 | inconclusive: 18.4 µM [cytotoxic, partial curve, poor fit] | –
30 | O=c1cc(Nc2ccc3c(c2)OCO3)[nH]c(=O)n1-c1ccc(Br)cc1 | inconclusive: 29.1 µM [cytotoxic, partial curve, poor fit] | –
31 | CC(=O)C[C@H]1SC[C@@H](C(C)C)N1S(=O)(=O)c1ccc(C)cc1 | inconclusive: 11.6 µM [cytotoxic, partial curve, poor fit] | –
32 | O=C(NC1CCCC1)C(c1ccco1)N1CCC(O)(c2ccc(Cl)cc2)CC1 (stereo unspecified) | inconclusive: 7.31 µM [cytotoxic, partial curve] | –
33 | CCNC(=O)CC1C(=O)N(C)C(=S)N1NC(=O)c1ccc(Cl)cc1 (stereo unspecified) | – | inactive: 4.44%
34 | Cc1cccc(C)c1NC(=O)CS(=O)CC(=O)NC1CCCc2ccccc21 (stereo unspecified) | inconclusive: 20.6 µM [cytotoxic, single point] | –
35 | COc1ccc(C(=O)/C=C/c2ccc(N3CCCCC3)c([N+](=O)[O-])c2)c(OC)c1 | inconclusive: 29.1 µM [cytotoxic, single point] | –
36 | COc1ccc(NC(=O)C2CCCN2S(=O)(=O)c2ccc3nc(-c4ccccc4)[nH]c3c2)cc1 (stereo unspecified) | inconclusive: 18.4 µM [cytotoxic, partial curve, poor fit] | –
37 | CCN(CC)CCNC(=O)C1c2cc(OC)c(OC)cc2C(=O)N(C)C1c1cccs1 (stereo unspecified) | inconclusive: 16.4 µM [rising, single point] | –
38 | COc1cccc(CN(C)CC(=O)Nc2cc(S(=O)(=O)N3CCCC3)ccc2Cl)c1OC | active: 20.6 µM | –
39 | Cc1nc(Nc2ccc3c(c2)OCO3)c2oc3ccccc3c2n1 | – | inactive: -16.5%
40 | CSc1ccccc1OCc1cc(C(=O)N(Cc2nccn2C)C(C)C)no1 | inconclusive: 20.6 µM [cytotoxic, single point] | –
41 | Cc1cc([N+](=O)[O-])nn1Cc1noc(C(=O)NCc2ccc3c(c2)OCO3)n1 | – | inconclusive: -31.1% [cytotoxic]
42 | CC(=O)c1nn(-c2ccc(C)cc2)cc1C(=O)c1cccc(Br)c1 | – | inactive: 3.34%
43 | COc1cc(C(=O)NCC(=O)OCc2ccc(F)cc2)cc(OC)c1OC | – | inactive: -0.897%
44 | CC(C)CCSc1nc2c(c(=O)[nH]c(=O)n2C)n1CCCc1ccccc1 | inconclusive: 18.4 µM [cytotoxic, single point] | –
45 | Cc1ccc(Cl)cc1N1CCN(C(=O)Cc2c(C(=O)O)[nH]c3ccc(Cl)cc23)CC1 | inconclusive: 29.1 µM [rising, single point] | –
46 | CCc1ccccc1NC(=O)C1c2ccccc2Oc2ccccc21 | inconclusive: 29.1 µM [rising, partial curve, poor fit] | –
47 | COc1ccc2nc(NC(=S)N(C)C)sc2c1 | active: 3.26 µM | –
48 | O=C(NC1CCCCC1c1ccccc1)c1ccccc1 (stereo unspecified) | inconclusive: 16.4 µM [cytotoxic, single point] | –

Records 36 through 38 from above:
Row | SMILES | Potency | activity change, negative = cytotoxicity
36 | COc1ccc(NC(=O)C2CCCN2S(=O)(=O)c2ccc3nc(-c4ccccc4)[nH]c3c2)cc1 (stereo unspecified) | inconclusive: 18.4 µM [cytotoxic, partial curve, poor fit] | –
37 | CCN(CC)CCNC(=O)C1c2cc(OC)c(OC)cc2C(=O)N(C)C1c1cccs1 (stereo unspecified) | inconclusive: 16.4 µM [rising, single point] | –
38 | COc1cccc(CN(C)CC(=O)Nc2cc(S(=O)(=O)N3CCCC3)ccc2Cl)c1OC | active: 20.6 µM | –

Going on with the list:

Row | SMILES | Potency | activity change, negative = cytotoxicity
49 | O=c1cc(CN2CCN(c3ccccc3F)CC2)c2cc(O)c(-c3ccccc3)cc2o1 | – | inactive: 16.1%
50 | COc1ccc(Cl)cc1NS(=O)(=O)c1ccc(OC)c(OC)c1 | active: 16.4 µM | –
51 | COCC(=O)Oc1c(Sc2ccccc2[N+](=O)[O-])c(C)nn1C(C)(C)C | – | inactive: 3.92%
52 | Cc1c(N2C(=O)/C(=C\c3ccccc3O)SC2=S)c(=O)n(-c2ccccc2)n1C | – | inactive: 28.2%
53 | COCCCNC(=O)Cn1cnc2sc(C)c(S(=O)(=O)N3CCN(c4ccccc4OC)CC3)c2c1=O | inconclusive: 23.1 µM [rising, partial curve, poor fit] | –
54 | CCOC(=O)c1cc(-c2ccc(C)cc2)n(CCC(=O)Nc2ccc(OC)c(OC)c2)c1C | – | inactive: 0.604%
55 | O=S(=O)(c1ccc2nc(COc3ccc(Cl)cc3Cl)[nH]c2c1)N1CCOCC1 | inconclusive: 29.1 µM [cytotoxic, single point] | –
56 | Clc1nc(Nc2ccc(N3CCOCC3)cc2)c2ccccc2n1 | inconclusive: 29.1 µM [cytotoxic, single point] | –
57 | O=C(COc1ccc(C(=S)N2CCOCC2)cc1Cl)Nc1ccccc1Cl | inconclusive: 7.31 µM [cytotoxic, partial curve] | –
58 | COc1ccc2c(c1OC)C(=O)N1c3ccccc3C(=O)N(c3ccccc3F)C21 (stereo unspecified) | active: 5.8 µM | –
59 | O=C1C(C2=C(O)c3ccccc3C2=O)=Nc2ccccc21 | active: 7.31 µM | –
60 | COc1ccc(CCNC(=O)c2ccc3c(c2)N(Cc2ccc(Cl)cc2)CCS3)c(OC)c1 | inconclusive: 5.17 µM [cytotoxic, full curve] | –
61 | N#CCCN(Cc1cccnc1)S(=O)(=O)c1ccc(S(=O)(=O)N2CCCCCC2)cc1 | inconclusive: 18.4 µM [cytotoxic, single point] | –
62 | O=[N+]([O-])c1cc(S(=O)(=O)C(F)(F)F)ccc1Sc1nc2ccccc2s1 | inconclusive: 20.6 µM [cytotoxic, partial curve, poor fit] | –
63 | O=C(Nc1ccc(S(=O)(=O)NCC2CCCO2)cc1)c1ccc(F)cc1 (stereo unspecified) | inconclusive: 7.31 µM [cytotoxic, partial curve] | –
64 | O=c1c2c(-c3ccc([N+](=O)[O-])cc3)csc2nc2n1CCCCC2 | inconclusive: 25.9 µM [cytotoxic, partial curve, poor fit] | –
65 | CC(C)(C)OC(=O)N1CCC(c2c(C(=O)NC3CCCCC3)cnn2-c2cccc(Cl)c2)CC1 | – | inactive: -0.459%
66 | CCOC(=O)CNC(=O)CN1CCC(c2nc3ccccc3[nH]2)CC1 | – | inactive: 10.7%
67 | Cc1ccc2nc(-c3ccncc3)cc(C(=O)Nc3ccc4c(c3)OCCO4)c2c1 | inconclusive: 29.1 µM [cytotoxic, single point] | –
68 | CN(Cc1ccccc1)Cc1nc2c(c(=O)n(C)c(=O)n2C)n1Cc1ccc(F)cc1 | active: 9.2 µM | –
69 | Cn1c(-c2ccc(F)cc2)cnc1NCc1ccc(F)cc1 | – | inactive: -27.2%
70 | CCC(C)NC(=O)C1CCN(S(=O)(=O)c2cccnc2)CC1 (stereo unspecified) | inconclusive: 13 µM [rising, partial curve] | –
71 | CC1C(=O)N2CCCc3cc(NS(=O)(=O)c4ccc(F)cc4)cc1c32 (stereo unspecified) | – | inactive: -0.169%
